Measured values as given in the supplement of paper PMC10849652.
Some of the results follow.

Sequences of proteins named here, by UniProt entry; tags and fusion partners are left off. A change or cut given only in a name is not applied to a line headed by its entry.
UniProt P61106, whole entry, looked up: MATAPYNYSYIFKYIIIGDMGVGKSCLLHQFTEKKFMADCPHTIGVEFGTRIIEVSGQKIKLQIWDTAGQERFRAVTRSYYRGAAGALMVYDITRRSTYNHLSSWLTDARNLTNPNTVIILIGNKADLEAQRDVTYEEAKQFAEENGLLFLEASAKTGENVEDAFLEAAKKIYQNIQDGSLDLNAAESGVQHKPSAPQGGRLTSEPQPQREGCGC
UniProt Q9NS91, whole entry, looked up: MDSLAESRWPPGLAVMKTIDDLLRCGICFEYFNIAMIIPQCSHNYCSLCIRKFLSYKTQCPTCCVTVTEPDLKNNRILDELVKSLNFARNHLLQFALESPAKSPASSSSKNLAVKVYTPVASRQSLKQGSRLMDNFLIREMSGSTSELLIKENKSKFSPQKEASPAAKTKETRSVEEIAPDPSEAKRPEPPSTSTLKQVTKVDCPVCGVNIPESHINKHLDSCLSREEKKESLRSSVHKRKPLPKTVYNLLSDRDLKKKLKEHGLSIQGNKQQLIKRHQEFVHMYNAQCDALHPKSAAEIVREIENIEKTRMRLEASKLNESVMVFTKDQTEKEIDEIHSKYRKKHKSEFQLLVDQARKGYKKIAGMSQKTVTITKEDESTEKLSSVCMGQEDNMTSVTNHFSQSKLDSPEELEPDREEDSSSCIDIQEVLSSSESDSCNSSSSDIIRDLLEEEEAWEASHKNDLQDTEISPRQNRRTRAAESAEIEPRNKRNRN
UniProt P54725: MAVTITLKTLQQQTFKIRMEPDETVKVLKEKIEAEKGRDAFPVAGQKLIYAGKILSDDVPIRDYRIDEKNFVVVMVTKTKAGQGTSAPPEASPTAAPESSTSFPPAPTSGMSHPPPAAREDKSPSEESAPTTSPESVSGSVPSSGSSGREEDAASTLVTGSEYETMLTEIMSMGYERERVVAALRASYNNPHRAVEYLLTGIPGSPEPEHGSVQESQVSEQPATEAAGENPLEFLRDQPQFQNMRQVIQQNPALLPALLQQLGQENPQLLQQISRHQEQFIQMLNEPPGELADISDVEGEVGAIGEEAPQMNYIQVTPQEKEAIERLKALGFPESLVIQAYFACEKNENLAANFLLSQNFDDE
UniProt Q96S59, whole entry, looked up: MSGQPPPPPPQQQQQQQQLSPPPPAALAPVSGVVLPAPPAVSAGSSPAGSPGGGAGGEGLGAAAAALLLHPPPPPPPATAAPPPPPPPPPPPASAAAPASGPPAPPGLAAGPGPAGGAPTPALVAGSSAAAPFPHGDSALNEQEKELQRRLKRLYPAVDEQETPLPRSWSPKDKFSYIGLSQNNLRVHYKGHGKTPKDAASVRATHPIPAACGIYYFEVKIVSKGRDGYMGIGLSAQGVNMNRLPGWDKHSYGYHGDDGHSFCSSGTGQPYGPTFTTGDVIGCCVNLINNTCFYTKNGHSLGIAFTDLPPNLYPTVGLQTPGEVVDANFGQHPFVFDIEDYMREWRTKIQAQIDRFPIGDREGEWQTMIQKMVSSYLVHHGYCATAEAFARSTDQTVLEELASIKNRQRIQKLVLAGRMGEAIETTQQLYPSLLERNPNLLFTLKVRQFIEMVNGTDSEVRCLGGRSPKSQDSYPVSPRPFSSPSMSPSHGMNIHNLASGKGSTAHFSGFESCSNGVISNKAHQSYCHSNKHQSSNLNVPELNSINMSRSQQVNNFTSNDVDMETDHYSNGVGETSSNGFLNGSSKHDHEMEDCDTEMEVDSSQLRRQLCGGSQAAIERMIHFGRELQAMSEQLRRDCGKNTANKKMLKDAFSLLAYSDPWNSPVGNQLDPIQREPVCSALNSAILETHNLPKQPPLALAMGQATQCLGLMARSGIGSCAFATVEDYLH
UniProt Q5T8P6: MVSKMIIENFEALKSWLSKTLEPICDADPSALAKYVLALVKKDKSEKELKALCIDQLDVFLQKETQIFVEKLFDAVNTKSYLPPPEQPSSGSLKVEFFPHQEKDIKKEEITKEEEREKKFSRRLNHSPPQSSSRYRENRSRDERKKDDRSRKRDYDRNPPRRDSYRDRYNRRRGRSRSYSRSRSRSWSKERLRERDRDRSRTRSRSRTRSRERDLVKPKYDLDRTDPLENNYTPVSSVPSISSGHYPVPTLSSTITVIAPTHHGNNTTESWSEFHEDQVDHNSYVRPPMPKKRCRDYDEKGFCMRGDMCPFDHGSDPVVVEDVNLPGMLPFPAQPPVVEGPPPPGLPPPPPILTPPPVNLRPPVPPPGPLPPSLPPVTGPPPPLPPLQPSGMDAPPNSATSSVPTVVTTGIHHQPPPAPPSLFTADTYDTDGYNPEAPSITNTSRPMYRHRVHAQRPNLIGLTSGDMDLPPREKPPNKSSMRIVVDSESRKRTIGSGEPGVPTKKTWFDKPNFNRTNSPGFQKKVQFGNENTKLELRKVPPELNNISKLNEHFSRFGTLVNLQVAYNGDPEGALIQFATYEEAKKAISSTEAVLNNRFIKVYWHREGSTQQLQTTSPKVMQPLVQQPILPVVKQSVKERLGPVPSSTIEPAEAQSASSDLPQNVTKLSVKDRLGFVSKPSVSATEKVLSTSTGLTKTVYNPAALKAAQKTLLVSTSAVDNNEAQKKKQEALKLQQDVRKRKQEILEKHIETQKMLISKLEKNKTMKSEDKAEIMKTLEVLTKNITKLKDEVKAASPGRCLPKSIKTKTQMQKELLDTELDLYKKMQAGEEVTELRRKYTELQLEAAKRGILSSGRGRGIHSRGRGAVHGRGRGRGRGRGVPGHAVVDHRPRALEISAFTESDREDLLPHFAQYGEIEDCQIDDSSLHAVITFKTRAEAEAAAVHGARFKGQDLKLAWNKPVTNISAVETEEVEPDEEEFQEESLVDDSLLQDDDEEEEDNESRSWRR
UniProt P43487, whole entry, looked up: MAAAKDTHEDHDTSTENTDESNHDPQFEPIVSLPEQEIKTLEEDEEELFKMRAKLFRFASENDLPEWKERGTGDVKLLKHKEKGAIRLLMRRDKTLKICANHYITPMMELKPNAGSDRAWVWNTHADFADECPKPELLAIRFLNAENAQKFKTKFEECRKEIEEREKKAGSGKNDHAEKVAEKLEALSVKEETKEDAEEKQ
UniProt P61018: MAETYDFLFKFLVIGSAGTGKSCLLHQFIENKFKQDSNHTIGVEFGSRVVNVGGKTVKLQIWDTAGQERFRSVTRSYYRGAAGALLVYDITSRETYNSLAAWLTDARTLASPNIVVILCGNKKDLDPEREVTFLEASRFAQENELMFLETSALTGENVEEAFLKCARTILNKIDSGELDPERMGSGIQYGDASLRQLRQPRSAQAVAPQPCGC
UniProt Q5HYI8: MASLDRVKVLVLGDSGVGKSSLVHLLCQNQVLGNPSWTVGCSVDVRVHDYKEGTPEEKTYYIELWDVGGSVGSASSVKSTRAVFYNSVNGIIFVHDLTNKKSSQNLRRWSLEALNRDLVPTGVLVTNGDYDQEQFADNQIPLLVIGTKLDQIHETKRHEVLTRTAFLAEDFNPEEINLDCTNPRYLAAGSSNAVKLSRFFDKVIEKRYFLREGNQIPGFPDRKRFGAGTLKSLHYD
UniProt P20336: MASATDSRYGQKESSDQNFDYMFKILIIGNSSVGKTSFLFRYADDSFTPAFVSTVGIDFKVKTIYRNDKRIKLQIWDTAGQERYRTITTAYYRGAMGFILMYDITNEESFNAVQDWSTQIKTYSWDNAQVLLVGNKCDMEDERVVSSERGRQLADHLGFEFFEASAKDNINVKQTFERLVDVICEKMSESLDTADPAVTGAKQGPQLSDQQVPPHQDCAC
UniProt P61020: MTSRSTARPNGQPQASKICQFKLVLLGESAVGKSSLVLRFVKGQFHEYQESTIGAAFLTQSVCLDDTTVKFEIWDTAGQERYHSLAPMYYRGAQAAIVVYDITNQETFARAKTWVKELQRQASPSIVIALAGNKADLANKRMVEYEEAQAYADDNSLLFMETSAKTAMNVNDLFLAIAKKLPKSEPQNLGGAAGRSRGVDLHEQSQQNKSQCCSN
UniProt P62820, whole entry, looked up: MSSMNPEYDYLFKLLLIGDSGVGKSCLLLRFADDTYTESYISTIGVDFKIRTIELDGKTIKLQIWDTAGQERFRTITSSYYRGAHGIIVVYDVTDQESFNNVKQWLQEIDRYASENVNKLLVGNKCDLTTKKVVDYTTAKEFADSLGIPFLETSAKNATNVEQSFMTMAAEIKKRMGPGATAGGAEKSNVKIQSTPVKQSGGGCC
UniProt P51159: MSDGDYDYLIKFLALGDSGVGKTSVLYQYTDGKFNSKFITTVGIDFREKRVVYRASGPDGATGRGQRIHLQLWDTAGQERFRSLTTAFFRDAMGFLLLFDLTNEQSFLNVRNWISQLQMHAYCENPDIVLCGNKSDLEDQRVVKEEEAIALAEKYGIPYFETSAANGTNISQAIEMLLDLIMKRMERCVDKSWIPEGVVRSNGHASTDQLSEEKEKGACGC
UniProt Q53S08: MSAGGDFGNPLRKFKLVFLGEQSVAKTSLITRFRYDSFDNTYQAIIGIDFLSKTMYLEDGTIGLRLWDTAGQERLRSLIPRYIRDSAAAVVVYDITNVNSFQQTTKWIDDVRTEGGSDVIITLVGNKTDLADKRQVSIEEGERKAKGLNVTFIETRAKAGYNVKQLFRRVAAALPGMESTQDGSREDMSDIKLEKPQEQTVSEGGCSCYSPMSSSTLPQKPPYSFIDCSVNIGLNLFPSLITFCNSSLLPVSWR
UniProt Q9H0H5: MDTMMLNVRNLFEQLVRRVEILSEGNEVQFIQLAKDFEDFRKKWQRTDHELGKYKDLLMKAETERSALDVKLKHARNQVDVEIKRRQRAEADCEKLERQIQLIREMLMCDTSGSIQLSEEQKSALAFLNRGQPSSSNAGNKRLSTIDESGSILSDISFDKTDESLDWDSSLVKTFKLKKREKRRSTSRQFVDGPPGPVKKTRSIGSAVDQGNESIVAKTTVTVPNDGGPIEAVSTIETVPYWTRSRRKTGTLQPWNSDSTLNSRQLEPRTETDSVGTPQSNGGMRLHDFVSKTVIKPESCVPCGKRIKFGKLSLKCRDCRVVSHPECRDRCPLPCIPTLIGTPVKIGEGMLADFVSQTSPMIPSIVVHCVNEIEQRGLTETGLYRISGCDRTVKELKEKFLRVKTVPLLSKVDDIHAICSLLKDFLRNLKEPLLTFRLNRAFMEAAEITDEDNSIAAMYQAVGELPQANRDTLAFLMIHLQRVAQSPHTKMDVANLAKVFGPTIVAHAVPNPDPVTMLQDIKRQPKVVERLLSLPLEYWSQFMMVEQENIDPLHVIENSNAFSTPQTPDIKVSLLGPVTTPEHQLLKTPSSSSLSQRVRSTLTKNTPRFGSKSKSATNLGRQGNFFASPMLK
UniProt Q86YS3: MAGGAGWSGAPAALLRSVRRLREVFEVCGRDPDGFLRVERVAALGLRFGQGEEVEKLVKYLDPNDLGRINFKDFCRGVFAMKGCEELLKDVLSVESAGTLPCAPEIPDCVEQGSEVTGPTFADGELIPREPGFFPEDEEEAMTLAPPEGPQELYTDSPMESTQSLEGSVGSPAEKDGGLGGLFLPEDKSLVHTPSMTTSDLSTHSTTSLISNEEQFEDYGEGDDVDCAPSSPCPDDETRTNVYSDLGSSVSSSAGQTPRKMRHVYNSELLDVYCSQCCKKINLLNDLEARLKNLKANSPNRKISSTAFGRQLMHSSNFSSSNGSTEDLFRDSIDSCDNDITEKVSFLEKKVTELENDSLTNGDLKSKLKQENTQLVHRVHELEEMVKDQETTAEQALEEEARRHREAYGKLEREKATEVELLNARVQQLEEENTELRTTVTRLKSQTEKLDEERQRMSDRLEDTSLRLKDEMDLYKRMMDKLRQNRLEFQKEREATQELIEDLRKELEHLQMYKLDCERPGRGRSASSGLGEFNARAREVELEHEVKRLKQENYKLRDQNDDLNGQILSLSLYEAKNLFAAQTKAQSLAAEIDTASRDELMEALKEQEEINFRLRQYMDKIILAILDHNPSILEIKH
UniProt P47736: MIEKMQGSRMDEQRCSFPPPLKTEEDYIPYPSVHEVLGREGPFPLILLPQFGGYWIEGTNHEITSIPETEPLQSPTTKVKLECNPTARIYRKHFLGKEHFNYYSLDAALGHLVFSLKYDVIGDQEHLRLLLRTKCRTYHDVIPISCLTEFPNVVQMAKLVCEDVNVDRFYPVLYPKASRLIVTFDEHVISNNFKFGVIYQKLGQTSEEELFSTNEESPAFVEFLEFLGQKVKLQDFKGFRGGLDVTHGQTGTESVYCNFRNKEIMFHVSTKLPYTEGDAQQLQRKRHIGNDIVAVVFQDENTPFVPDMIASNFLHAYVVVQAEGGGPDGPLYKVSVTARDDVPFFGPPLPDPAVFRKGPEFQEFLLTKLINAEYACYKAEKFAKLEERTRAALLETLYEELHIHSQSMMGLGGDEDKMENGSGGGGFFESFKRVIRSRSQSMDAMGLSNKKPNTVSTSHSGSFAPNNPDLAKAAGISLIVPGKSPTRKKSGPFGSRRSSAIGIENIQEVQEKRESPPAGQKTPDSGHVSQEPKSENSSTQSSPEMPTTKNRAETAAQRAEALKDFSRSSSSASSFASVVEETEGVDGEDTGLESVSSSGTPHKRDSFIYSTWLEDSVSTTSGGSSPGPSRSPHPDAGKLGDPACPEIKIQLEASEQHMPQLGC

What was measured:
Assay in all cases: log2 fold change, soluble protein after heating vs DMSO (PISA); higher = thermal stabilisation; K562 cells, 10 uM, 30 min; active = over 0.2 and 3.5 SD of the protein, either way, in both replicates (recomputed)
[1] = compound: CS(=O)(=O)c1ccc(-c2cnc(N)c(C(=O)Nc3ccccc3)n2)cc1
Procedure, shortened: (§1)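 Thermal stability values are relative to control samples and come from duplicates. They are expressed as log2 fold changes. For measurement, K562 cells (2×10^6 cells/mL) received 10 μM compound for 30 min, and aliquots were heated for 3 min over 48°C-58°C, pooled, and extracted at 4°C in PBS with 0.5% NP-40. Soluble protein, the supernatant after 21,000xg for 90 min, was quantified by TMTpro 16plex LC-MS/MS with equalised channel sums.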

[2] = compound: C[C@@H](Oc1cc(-c2cnn(C3CCNCC3)c2)cnc1N)c1c(Cl)ccc(F)c1Cl [crizotinib]
Procedure, shortened: as §1

[3] = compound: C[C@@H]1COCCN1C2=NC(=NC(=C2)C3(CC3)S(=O)(=O)C)C4=C5C=CNC5=CC=C4
Procedure, shortened: as §1

[4] = compound: C[C@H](C1=CC=C(C=C1)C(=O)NC2=C3C=CNC3=NC=C2)N
Procedure, shortened: as §1

[5] = compound: C[C@H](Nc1ncnc2nc[nH]c12)c1cc2cccc(Cl)c2c(=O)n1-c1ccccc1 [duvelisib]
Procedure, shortened: as §1

[6] = compound: Cc1cc(Nc2cc(CN3CCOCC3)c3nc(C)c(Cc4ccc(Cl)cc4F)n3n2)n[nH]1 [gandotinib]
Procedure, shortened: as §1

[7] = compound: Cc1cc(Nc2cc(N3CCN(C)CC3)nc(Sc3ccc(NC(=O)C4CC4)cc3)n2)n[nH]1 [tozasertib]
Procedure, shortened: as §1

[8] = compound: Cc1cc(SCc2sc(-c3ccc(C(F)(F)F)cc3)nc2C)ccc1OCC(=O)O
Procedure, shortened: as §1

[9] = compound: Cc1ccc(-n2nc(C(C)(C)C)cc2NC(=O)Nc2ccc(OCCN3CCOCC3)c3ccccc23)cc1 [doramapimod]
Procedure, shortened: as §1

[10] = compound: Cc1ccc(C(=O)N(CCCN)[C@@H](c2nc3cc(Cl)ccc3c(=O)n2Cc2ccccc2)C(C)C)cc1 [ispinesib]
Procedure, shortened: as §1

Measured: log2 fold change

RAPGEF2, A0A2R8YGD3
inactive: [1] 0.055 | [2] -0.021 | [3] -0.026 | [4] 0.002 | [5] 0.055 | [6] -0.218 | [7] -0.167 | [8] -0.231 | [9] 0.114 | [10] 0.011

RAB5A (UniProt P20339)
inactive: [1] 0.034 | [2] 0.055 | [3] 0.034 | [4] -0.098 | [5] 0.009 | [6] -0.055 | [7] 0.017 | [8] -0.075 | [9] 0.008 | [10] 0.024

RAB14 (UniProt P61106)
inactive: [1] 0.018 | [2] 0.034 | [3] 0.055 | [4] -0.023 | [5] 0.02 | [6] -0.01 | [7] -0.009 | [8] -0.014 | [9] -0.007 | [10] 0.098

RAD18 (UniProt Q9NS91)
inactive: [1] 0.021 | [2] -0.055 | [3] 0.157 | [4] -0.034 | [5] 0.03 | [6] -0.169 | [7] 0.189 | [8] 0.003 | [9] 0.032 | [10] 0.122

RAD23A (UniProt P54725)
inactive: [1] -0.009 | [2] 0.061 | [3] 0.004 | [4] -0.036 | [5] -0.017 | [6] -0.103 | [7] -0.009 | [8] -0.107 | [9] -0.038 | [10] 0.022

RANBP9 (UniProt Q96S59)
inactive: [1] 0.035 | [2] 0.057 | [3] -0.024 | [4] -0.01 | [5] -0.035 | [6] 0.032 | [7] 0.056 | [8] 0.005 | [9] -0.013 | [10] 0.012

RBM26 isoform 3 (UniProt Q5T8P6)
inactive: [1] 0.066

RACK1 (UniProt D6RF23)
inactive: [1] 0.119 | [2] 0 | [3] 0.047 | [4] 0.361 | [5] 0.168 | [6] -0.207 | [7] -0.188 | [8] -0.125 | [9] 0.024 | [10] -0.185

RALB isoform 2 (UniProt P11234)
inactive: [1] 0.037 | [2] 0.102 | [3] 0.092 | [4] -0.105 | [5] 0.03 | [6] -0.101 | [7] 0.001 | [8] -0.018 | [9] -0.029 | [10] 0.083

RANBP1 (UniProt P43487)
inactive: [1] 0.012 | [2] -0.007 | [3] 0.046 | [4] -0.103 | [5] -0.017 | [6] 0.024 | [7] 0.023 | [8] 0 | [9] 0.033 | [10] 0.01

Six consecutive records already listed, quoted:
RAPGEF2, A0A2R8YGD3
inactive: [1] 0.055 | [2] -0.021 | [3] -0.026 | [4] 0.002 | [5] 0.055 | [6] -0.218 | [7] -0.167 | [8] -0.231 | [9] 0.114 | [10] 0.011

RAB5A (UniProt P20339)
inactive: [1] 0.034 | [2] 0.055 | [3] 0.034 | [4] -0.098 | [5] 0.009 | [6] -0.055 | [7] 0.017 | [8] -0.075 | [9] 0.008 | [10] 0.024

RAB14 (UniProt P61106)
inactive: [1] 0.018 | [2] 0.034 | [3] 0.055 | [4] -0.023 | [5] 0.02 | [6] -0.01 | [7] -0.009 | [8] -0.014 | [9] -0.007 | [10] 0.098

RAD18 (UniProt Q9NS91)
inactive: [1] 0.021 | [2] -0.055 | [3] 0.157 | [4] -0.034 | [5] 0.03 | [6] -0.169 | [7] 0.189 | [8] 0.003 | [9] 0.032 | [10] 0.122

RAD23A (UniProt P54725)
inactive: [1] -0.009 | [2] 0.061 | [3] 0.004 | [4] -0.036 | [5] -0.017 | [6] -0.103 | [7] -0.009 | [8] -0.107 | [9] -0.038 | [10] 0.022

RANBP9 (UniProt Q96S59)
inactive: [1] 0.035 | [2] 0.057 | [3] -0.024 | [4] -0.01 | [5] -0.035 | [6] 0.032 | [7] 0.056 | [8] 0.005 | [9] -0.013 | [10] 0.012

More results follow:

RAB24 (UniProt Q969Q5)
inactive: [1] -0.01 | [2] 0.041 | [3] -0.02 | [4] -0.015 | [5] 0.001 | [6] 0.032 | [7] -0.005 | [8] -0.026 | [9] -0.021 | [10] 0.007

RAB4A (UniProt P20338)
inactive: [1] 0.035 | [2] 0.057 | [3] 0.061 | [4] 0.01 | [5] -0.004 | [6] -0.003 | [7] -0.057 | [8] -0.021 | [9] -0.039 | [10] 0.033

RANBP3 (UniProt Q9H6Z4)
inactive: [1] 0.012 | [2] 0 | [3] 0.016 | [4] -0.031 | [5] 0.022 | [6] -0.031 | [7] 0.022 | [8] -0.013 | [9] 0.005 | [10] 0.072

RAB4B isoform 2 (UniProt P61018)
inactive: [1] 0.008 | [2] 0.111 | [3] 0.076 | [4] -0.028 | [5] 0.086 | [6] -0.017 | [7] -0.039 | [8] -0.02 | [9] 0.014 | [10] -0.005

RABL3 (UniProt Q5HYI8)
inactive: [1] 0.035 | [2] 0.081 | [3] 0.115 | [4] -0.082 | [5] 0.024 | [6] -0.027 | [7] -0.013 | [8] 0.01 | [9] -0.04 | [10] -0.1

RAB3A (UniProt P20336)
inactive: [1] -0.082 | [2] 0.093 | [3] -0.064 | [4] -0.079 | [5] 0.111 | [6] -0.257 | [7] 0.057 | [8] -0.096 | [9] -0.227 | [10] 0.054

RBBP4 (UniProt Q09028)
inactive: [1] 0.017 | [2] 0.056 | [3] 0.045 | [4] -0.061 | [5] 0.11 | [6] 0.004 | [7] 0.013 | [8] 0.046 | [9] -0.061 | [10] 0.109

RAB12, A0A3B3ITT1
inactive: [1] 0.014 | [2] 0.01 | [3] 0.025 | [4] -0.146 | [5] 0.01 | [6] -0.037 | [7] 0.002 | [8] -0.016 | [9] -0.012 | [10] 0.075

RAB5B (UniProt P61020)
inactive: [1] 0.002 | [2] -0.014 | [3] 0.008 | [4] -0.13 | [5] -0.01 | [6] 0.08 | [7] -0.033 | [8] -0.076 | [9] 0.003 | [10] 0.069

RAB1A (UniProt P62820)
inactive: [1] -0.03 | [2] 0.031 | [3] 0.032 | [4] -0.054 | [5] 0.018 | [6] -0.018 | [7] -0.012 | [8] -0.045 | [9] -0.04 | [10] 0.013

RABEP1 (UniProt Q15276)
inactive: [1] 0.046 | [2] 0.044 | [3] 0.016 | [4] -0.002 | [5] 0.032 | [6] 0.002 | [7] 0.034 | [8] -0.01 | [9] -0.012 | [10] -0.014

RAB27A (UniProt P51159)
inactive: [1] 0.056 | [2] 0.069 | [3] 0.016 | [4] -0.052 | [5] 0.03 | [6] -0.034 | [7] -0.007 | [8] -0.016 | [9] -0.027 | [10] 0.064

RAB6D (UniProt Q53S08)
inactive: [1] 0.013 | [2] 0.018 | [3] 0.048 | [4] 0.005 | [5] 0.076 | [6] 0.016 | [7] -0.144 | [8] -0.079 | [9] 0.054 | [10] -0.07

RACGAP1 (UniProt Q9H0H5)
inactive: [1] 0.014 | [2] -0.215 | [3] 0.146 | [4] -0.067 | [5] 0.008 | [6] -0.112 | [7] -0.019 | [8] 0.056 | [9] 0.03 | [10] 0.052

RAB11FIP4 (UniProt Q86YS3)
inactive: [1] 0.009

RAP1GAP isoform 4 (UniProt P47736)
inactive: [1] -0.043 | [2] -0.128 | [3] -0.022 | [4] -0.028 | [5] -0.153 | [6] -0.143 | [7] -0.012 | [8] 0.107 | [9] 0.107 | [10] -0.113

RAB13 (UniProt P51153)
inactive: [1] -0.076 | [2] 0.058 | [3] -0.06 | [4] -0.246 | [5] -0.054 | [6] -0.039 | [7] 0.008 | [8] 0.017 | [9] -0.027 | [10] 0.145

RASSF5 (UniProt Q8WWW0)
inactive: [1] 0 | [2] 0.046 | [3] -0.165 | [4] -0.05 | [5] 0.06 | [6] 0.007 | [7] -0.026 | [8] -0.148 | [9] 0.004 | [10] 0.089

RAPGEF1 isoform 3 (UniProt Q13905)
inactive: [1] -0.037

RAD51AP1 (UniProt Q96B01)
inactive: [1] -0.023 | [2] 0.011 | [3] -0.025 | [4] 0.02 | [5] 0.02 | [6] 0.049 | [7] -0.019 | [8] -0.045 | [9] -0.024 | [10] -0.037
